Measured values from patent publication US4683245A, “Laevorotatory antipode of moprolol as an antihypertensive” (SIMES S.p.A. Societa Italiana Medicinali e Sintetici, priority 1979, dated 1987).
At least one compound was matched to its structure with a doubt left.

What was measured:
[1] = tested on: adrenergic beta-receptors; assay: inhibition of hemodynamic effects of isoproterenol (beta-receptor stimulation) in anesthetized dogs; type: in vivo, dog; conditions: isoproterenol 0.25 μg/Kg/minute i.v., duodenal administration
Excerpt: In order better to clarify the advantages connected with the use of pharmaceutical compositions according to the present invention, the attached drawings include three diagrams relating to certain experiments conducted in anesthetized dogs. These diagrams concern the inhibition by recemic moprolol, it laevorotatory optical isomer and its dextro-rotatory optical isomer, of certain homodynamic effects due to stimulation of the adrenergic beta-receptors following on intravenous infusion of isoproterenol at a dose of 0.25 μg/Kg/minute.
The curves therein reported refer to the means of the results of three tests for each substance.

[2] = tested on: spontaneously beating right atrium preparations; assay: chronotropic effect on spontaneously beating right atria from reserpinized guinea-pigs; conditions: reserpinized guinea-pig right atrium
Method: Experiments were carried out on spontaneously beating right atrium preparations taken from the hearts of guinea-pigs of both sexes, weighing 300 to 400 g.
Twenty hrs before sacrifice the animals were injected intramuscularly with reserpine dissolved in 20% ascorbic acid in 2 doses of 2 mg/kg each at 24 hrs distance. An equal number of animals received the reserpine solvent only and were kept as controls.
The preparations were suspended in 10 ml vessels containing Krebs-Henseleitsolution aerated with […] and maintained at a temperature of 35° C.
The right atria were fixed to the vessel base by one end and connected to a transducer of a semiisometric microdynanometer (Basile) by the other end.
Heart rate was recorded directly from the tracing.
All the preparations were subjected to a reset traction of 0.6-0.8 g and allowed to stabilize for 1 hr before starting experiments.
The substances were placed in the vessel in cumulative concentrations. […]
The control preparations were made by replacing in the vessel the only solvent (H2 O) in the same volumes as for the drug solutions. The effect excerted by the drug and the solvent on atrial rate was evaluated as per-cent variation as compared with baseline values. The significance of the differences between treated and control animals was assessed by Dunnett's test. […]

COc1ccccc1OCC(O)CNC(C)C (racemic) [Moprolol (±), 1-(o-methoxy-phenoxy)-3-isopropyl-amino-propane-2-ol]
beta-blocking activity (in words) [1]: nearly the same effects as indicated above, with the same significance, become evident at exactly doubled doses | effect on atrial rate (in words) [2]: the dextro-rotatory isomer suppress the cardiac stimulant effect of the laevorotatory isomer
